The values below come from patent US11000604B2, “Reagent for site-selective bioconjugation of proteins or antibodies” (Research Foundation of the City University of New York, priority 2017, dated 2021).

SMILES strings stand for the structures.

The nature of this data set: Degree of labeling of antibodies after conjugation with PODS-FL (UV-Vis spectrophotometry). The note with it: 10 equivalents of PODS-FL.

For the compound `CS(=O)(=O)c1nnc(-c2ccc(NC(=O)CCC(=O)NCCCOCCOCCOCCCNC(=S)Nc3ccc(-c4c5ccc(=O)cc-5oc5cc(O)ccc45)c(C(=O)O)c3)cc2)o1` [PODS-FL], the “degree of labeling (DOL)” value is listed as 0.1±0.1 (trastuzumab following re-oxidization); 0.03±0.02 (trastuzumab, absence of TCEP); 2.04±0.03 (trastuzumab, two hours, 10 eq TCEP).
